Source: article PMC7521688
These are yes or no findings as the source states them, for the method shown.

Chains of the proteins cited; added tags and fusions are not shown. Residues count along the entry.
UniProt O83732, residues 25-237: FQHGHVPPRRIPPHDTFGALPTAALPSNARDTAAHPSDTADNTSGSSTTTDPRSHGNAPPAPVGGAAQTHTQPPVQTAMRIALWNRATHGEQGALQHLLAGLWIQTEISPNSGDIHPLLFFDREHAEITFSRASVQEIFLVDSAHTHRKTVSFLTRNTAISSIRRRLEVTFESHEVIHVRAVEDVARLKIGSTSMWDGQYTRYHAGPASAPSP

Target: TP0751^25-237 (full-length TP0751 without its signal sequence) (Treponema pallidum) (UniProt O83732)
Assay: SEC; analytical gel filtration, Superdex 200 Increase 10/300 GL calibrated with molecular weight standards; 50 mM Tris-HCl pH 7.5, 50 mM NaCl, 1 mM DTT; flow rate 0.5 ml/min; both purified

Substance: TP0751^25-237 (full-length TP0751 without its signal sequence) (from UniProt O83732 25-237)
- binding: no binding
